Taken from: PubChem BioAssay AID1259308 (NCATS, 2017)

Assay: 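Knock-downs that increase output of a recombinant reporter protein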 (primary screen)
Cell system: human HEK293 embryonic kidney cells stably expressing firefly luciferase (HEK-CMV-Luc2-Hygro)
Reagents: single siRNA against human genes, 0.8 pmol siRNA per well
Timing: 72 h
Measured: 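Luciferase light (ONE-Glo) measured on one replicate plate set and viability (CellTiter-Glo) on the other, scaled to a negative control siRNA, with robust z-scores and luciferase per cell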
Scale: total luciferase, z-score and total luciferase, % of control: higher = more reporter protein produced
Hit rule: 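An siRNA counts as active if its total luciferase robust z-score exceeds 3; genes with two or more such siRNAs out of three were retested with fresh siRNAs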
Calls: active = raised luciferase; inactive = no rise
Here is an unselected part of about 59,000 deposited reagents. Of all reagents, about 1,510 (2.6%) were called active. 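Calls use total luciferase alone and ignore viability, so some active siRNAs may act by altering cell number.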 A number with no mark means an inactive call. Reagents against one gene are numbered here. Further read-outs or replicates are left out here.

With knock-down of LOC644634 #1 the results were total luciferase, z-score 0.576; total luciferase, % of control 93.3.
Depletion of LOC644634 #2 came out at: total luciferase, z-score -1.59; total luciferase, % of control 50.2.
LOC644634 #3 gave total luciferase, z-score 3.63 (active); total luciferase, % of control 154.
Knock-down of CRKL #1 came out at: total luciferase, z-score 0.846; total luciferase, % of control 98.7.
Silencing of CRKL #2 gave: total luciferase, z-score 0.159; total luciferase, % of control 85.1.
Depletion of CRKL #3 came out at: total luciferase, z-score -0.246; total luciferase, % of control 77.
With knock-down of HSPA1B #1 the results were total luciferase, z-score 0.222; total luciferase, % of control 86.3.
For HSPA1B #2, the entry reads total luciferase, z-score -0.591; total luciferase, % of control 70.1.
HSPA1B #3 gave total luciferase, z-score 3.19 (active); total luciferase, % of control 145.
Depletion of ZNF534 #1 gave: total luciferase, z-score 1.12; total luciferase, % of control 104.
Against ZNF534 #2, the values are total luciferase, z-score 1.74; total luciferase, % of control 116.
With knock-down of ZNF534 #3 the results were total luciferase, z-score 1.91; total luciferase, % of control 120.
Silencing of LINC01545 #1 came out at: total luciferase, z-score -1.9; total luciferase, % of control 44.1.
LINC01545 #2 gave total luciferase, z-score -0.781; total luciferase, % of control 66.4.
For LINC01545 #3, the values are total luciferase, z-score -0.759; total luciferase, % of control 66.8.
Depletion of CD33 #1 came out at: total luciferase, z-score 0.497; total luciferase, % of control 91.8.
CD33 #2 gave total luciferase, z-score -0.93; total luciferase, % of control 63.4.
CD33 #3 gave total luciferase, z-score -0.0138; total luciferase, % of control 81.6.
Knock-down of EXOC3L2 #1 resulted in: total luciferase, z-score 0.781; total luciferase, % of control 97.4.
With knock-down of EXOC3L2 #2 the results were total luciferase, z-score -0.056; total luciferase, % of control 80.8.
For EXOC3L2 #3 the deposit lists total luciferase, z-score -0.758; total luciferase, % of control 66.8.

5 successive entries already listed, quoted:
LINC01545 #1 — total luciferase, z-score = -1.9; total luciferase, % of control = 44.1
LINC01545 #2 — total luciferase, z-score = -0.781; total luciferase, % of control = 66.4
LINC01545 #3 — total luciferase, z-score = -0.759; total luciferase, % of control = 66.8
CD33 #1 — total luciferase, z-score = 0.497; total luciferase, % of control = 91.8
CD33 #2 — total luciferase, z-score = -0.93; total luciferase, % of control = 63.4

Next reagents:
Against NDUFA3P3 #1 the deposit lists total luciferase, z-score 0.401; total luciferase, % of control 89.9.
NDUFA3P3 #2 gave total luciferase, z-score 0.693; total luciferase, % of control 95.7.
After knock-down of NDUFA3P3 #3, the screen gave total luciferase, z-score -1.32; total luciferase, % of control 55.7.
After knock-down of USP32 #1, the screen gave total luciferase, z-score -0.502; total luciferase, % of control 71.9.
Depletion of USP32 #2 resulted in: total luciferase, z-score 0.0224; total luciferase, % of control 82.3.
For USP32 #3 the deposit lists total luciferase, z-score -1.92; total luciferase, % of control 43.8.
Knock-down of DPP7 #1 gave: total luciferase, z-score -1.03; total luciferase, % of control 61.4.
DPP7 #2 scored total luciferase, z-score 0.645; total luciferase, % of control 94.7.
Depletion of DPP7 #3 gave: total luciferase, z-score -0.786; total luciferase, % of control 66.3.
Knock-down of HIC1 #1 gave: total luciferase, z-score -2.05; total luciferase, % of control 41.1.
After knock-down of HIC1 #2, the record shows total luciferase, z-score 0.844; total luciferase, % of control 98.7.
HIC1 #3 showed total luciferase, z-score -0.279; total luciferase, % of control 76.3.
